Source: ChEMBL document CHEMBL4265899, “Trisubstituted thiazoles as potent and selective inhibitors of Plasmodium falciparum protein kinase G (PfPKG)” (Bioorg Med Chem Lett, 2018)
Converted amounts (≈) assume the structure as drawn.

What was measured:
[1] = Lipophilicity, log D of the compound at pH 7.4; settings: buffer
[2] = Permeability of the compound by PAMPA
[3] = Kinetic solubility of the compound

CN1CCC(c2nc(-c3ccc(F)cc3)c(-c3ccnc(Nc4ccc(N5CCNCC5)cc4)n3)s2)CC1
logD [1]: 1.8 | Papp [2]: 75 nm/s | solubility kinetic [3]: 209 µM (≈ 111 µg/mL)
